From PubChem BioAssay AID1347076 (National Center for Advancing Translational Sciences (NCATS), 2019)
Hit rate of the full screen: of about 400,000 compounds, about 13,000 (3.2%) were called active. The inconclusive results got no clear call from the source; some entries with a clear call stand among them for comparison. Calls come from the whole dose curve; as a rule, active = well fitted cell-killing curve with a large enough effect; inconclusive = small, poorly fitted or top-dose-only effect, or effect the other way; inactive = flat fitted curve, though single readings scatter. Where the call is inconclusive, the potency comes from a doubtful curve fit.

Experiment: qHTS assay for MDR1-selective chemotherapeutics: Primary screen using the drug-selected MDR subline cells KB-V1; note: nearly all actives have a fitted effect of over 60% in size
Details: KB-V1 MDR cells viability, CellTiter-Glo, 72 h; activity change, negative = cytotoxicity: at 46.1 µM (top of the series)
In short: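 Cytotoxicity via CellTiter-Glo luminescence after 72 h compound exposure at 37 degrees C. Cells: drug-selected KB-V1 line, DMEM phenol-red free plus 10% FBS. Compounds tested at multiple concentrations; normalized data fitted to concentration-effect curves.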
% is set by controls: 0 for no effect and ±100 for the full control effect; potency is the fitted concentration of half-maximal effect.

Compound	Potency	activity change, negative = cytotoxicity
O=C(CSc1ccccn1)N/N=C/c1ccccc1[N+](=O)[O-]	inconclusive: 20.6 µM [cytotoxic, single point]	–
O=S(=O)(c1ccc(Oc2ccc(F)c(Cl)c2)nc1)N1CCOCC1	active: 23.1 µM	–
CC(=O)c1cccc(NC(=O)c2ccc(N(Cc3ccc(C)cc3)S(C)(=O)=O)cc2)c1	inconclusive: 11.2 µM [cytotoxic, partial curve, poor fit]	–
CCOc1ccccc1NC(=O)C1CCCN(S(=O)(=O)c2cccs2)C1 (centres undefined)	–	inactive: 0%
CSCCC(NC(=O)c1ccc(Cl)cc1)C(=O)NC(C)(C)C (centres undefined)	inconclusive: 5.8 µM [cytotoxic, partial curve]	–
CCCc1nc2c(c(=O)c3ccccc3n2C)c(=O)n1C1CCCCCC1	inconclusive: 18.4 µM [cytotoxic, single point]	–
CCN(c1ccccc1)S(=O)(=O)c1ccc(C(=O)NCC(c2cccs2)N(C)C)cc1 (centres undefined)	inconclusive: 0.517 µM [cytotoxic, full curve]	–
COc1ccccc1-c1sc2cc3c(cc2c1-c1ccc(OCCN2CCOCC2)cc1)OCO3	–	inactive: -0.132%
CC(NCc1ccc2c(c1)n(C)c(=O)n2C)c1ccccc1 (centres undefined)	–	inactive: -5.91%
CCN(CC)c1ncnc2sc(C(=O)N3CCN(c4ccc(OC)cc4)CC3)c(C)c12	inconclusive: 23.1 µM [cytotoxic, partial curve, poor fit]	–
O=C(Nc1ccccc1)c1cccc(NC(=O)c2ccco2)c1	inconclusive: 20.6 µM [cytotoxic, single point]	–
CCOC(=O)c1cccc(NC(=O)c2ccc(N(C)C)cc2)c1	inconclusive: 10.3 µM [cytotoxic, partial curve]	–
O=C(NCc1ccccc1)C(=O)NCC1OCCN1C(=O)c1ccc(Cl)cc1 (centres undefined)	inconclusive: 11.6 µM [cytotoxic, partial curve]	–
COc1cccc(-c2cc(C(=O)NCc3ccccc3)no2)c1	–	inactive: 0%
CN1CCN(c2ccc(NC(=O)c3cc4ccccc4o3)cc2)CC1	–	inactive: -0.105%
CCOC(=O)c1nc(NCc2ccccc2)sc1C	inconclusive: 29.1 µM [cytotoxic, single point]	–
OC(c1nc2ccc(F)cc2[nH]1)C(O)c1nc2ccc(F)cc2[nH]1 (centres undefined)	inconclusive: 16.4 µM [rising, partial curve, poor fit]	–
C=CCOc1ccc(C2/C(=C(\O)c3c(C)[nH]c(C(=O)OC)c3C)C(=O)C(=O)N2CCN(C)C)cc1 (centres undefined)	inconclusive: 29.1 µM [rising, single point]	–
Cc1ccc(S(=O)(=O)Nc2ccc(Br)cc2/C=N/n2cnnc2)cc1	–	inactive: -23.8%
O=C(COC(=O)c1cc(=O)[nH]c2ccccc12)NCc1ccc(F)cc1	inconclusive: 20.6 µM [rising, partial curve, poor fit]	–
Cc1nc(N2CCCCC2)c2c(C)c(C(=O)Nc3ccc4c(c3)OCCO4)sc2n1	–	inactive: -17.9%
Cc1cc(NC(=O)Nc2ccc(F)cc2)no1	inconclusive: 0.731 µM [rising, full curve, poor fit]	–

Compound	Potency	activity change, negative = cytotoxicity
COc1ccc(C2Nc3ccccc3C(=O)N2Cc2ccccc2)cc1CSc1ccccn1 (centres undefined)	active: 4.61 µM	–
CNc1c(NC(=O)c2ccc3c(c2)OCO3)c(=O)oc2ccccc12	–	inconclusive: -17.9%
CC1=NOC(=O)/C1=C\c1ccc(-c2cccc(Cl)c2)o1	inconclusive: 29.1 µM [cytotoxic, single point]	–
CCOC(=O)N1CCN(C(=O)C2CCN(Cc3cccc(OCc4ccccc4)c3)CC2)CC1	inconclusive: 29.1 µM [cytotoxic, single point]	–
Cc1nc2c(-c3ccccc3)c(C)nn2c(N)c1-c1ccccc1	inconclusive: 25.9 µM [cytotoxic, single point]	–
Cc1noc2ncnc(NCCc3ccccc3)c12	–	inactive: -18.1%
O=c1[nH]c(-c2ccccn2)cc2ccccc12	inconclusive: 14.6 µM [cytotoxic, partial curve]	–
O=C(N/N=C/c1ccc([N+](=O)[O-])cc1)c1ccc(COc2ccccc2-c2ccccc2)cc1	active: 16.4 µM	–
O=S1(=O)N=C(Nc2ccc(O)cc2)c2ccccc21	–	inactive: -15.8%
CN(C)c1ccc(C(I)C(I)c2ccnc3ccccc23)cc1 (centres undefined)	inconclusive: 29.1 µM [cytotoxic, single point]	–
CCCN1C(=O)c2ccccc2NC1c1ccc(OC)cc1O (centres undefined)	active: 5.8 µM	–
O=S(Cc1ccc(Br)cc1)Cc1nnc(SCc2ccc(Cl)cc2)n1-c1ccccc1 (centres undefined)	active: 2.31 µM	–
CCOc1cc(-c2cc(-c3ccc(C)o3)nc(N)c2C#N)ccc1O	active: 23.1 µM	–
CC(C)C[C@H](NC(=O)c1nc[nH]c1C(=O)NC(c1ccccc1)c1ccccc1)C(=O)OC(C)(C)C	inconclusive: 16.4 µM [cytotoxic, partial curve, poor fit]	–
O=C(Nc1ccccc1Cl)C1CCCN(c2ncnc3c2nc2n3CCCCC2)C1 (centres undefined)	active: 7.31 µM	–
O=C1CC(Nc2ccc(N3CCOCC3)cc2)C(=O)N1c1ccccc1 (centres undefined)	–	inactive: -2.56%
COC(=O)Cc1ccc(NC(=O)c2ccc(NC(=O)c3ccco3)cc2)cc1	inconclusive: 7.31 µM [cytotoxic, partial curve]	–
c1ccc(Cn2c(Sc3nnnn3-c3ccccc3)nnc2-c2ccccc2)cc1	inconclusive: 23.1 µM [cytotoxic, partial curve]	–
NC(=O)CSc1ccc(S(=O)(=O)N2CCOCC2)cn1	inconclusive: 32.6 µM [rising, single point]	–
Cc1nnc(SCC(=O)Nc2cc(S(=O)(=O)N3CCCC3)ccc2Cl)n1C1CC1	inconclusive: 32.6 µM [cytotoxic, single point]	–
O=C1CC(c2ccccc2)Sc2ccccc2N1 (centres undefined)	–	inactive: 3.25%
COCCN(C(=O)Cc1cccs1)C(C(=O)NCc1ccc(OC)cc1)c1ccc(OC)cc1 (centres undefined)	inconclusive: 1.84 µM [cytotoxic, full curve]	–

A second format for part of the listing above.

| Compound | Potency | activity change, negative = cytotoxicity |
| --- | --- | --- |
| O=C(N/N=C/c1ccc([N+](=O)[O-])cc1)c1ccc(COc2ccccc2-c2ccccc2)cc1 | active: 16.4 µM | – |
| O=S1(=O)N=C(Nc2ccc(O)cc2)c2ccccc21 | – | inactive: -15.8% |
| CN(C)c1ccc(C(I)C(I)c2ccnc3ccccc23)cc1 (centres undefined) | inconclusive: 29.1 µM [cytotoxic, single point] | – |
| CCCN1C(=O)c2ccccc2NC1c1ccc(OC)cc1O (centres undefined) | active: 5.8 µM | – |
| O=S(Cc1ccc(Br)cc1)Cc1nnc(SCc2ccc(Cl)cc2)n1-c1ccccc1 (centres undefined) | active: 2.31 µM | – |
| CCOc1cc(-c2cc(-c3ccc(C)o3)nc(N)c2C#N)ccc1O | active: 23.1 µM | – |
| CC(C)C[C@H](NC(=O)c1nc[nH]c1C(=O)NC(c1ccccc1)c1ccccc1)C(=O)OC(C)(C)C | inconclusive: 16.4 µM [cytotoxic, partial curve, poor fit] | – |
| O=C(Nc1ccccc1Cl)C1CCCN(c2ncnc3c2nc2n3CCCCC2)C1 (centres undefined) | active: 7.31 µM | – |
| O=C1CC(Nc2ccc(N3CCOCC3)cc2)C(=O)N1c1ccccc1 (centres undefined) | – | inactive: -2.56% |
| COC(=O)Cc1ccc(NC(=O)c2ccc(NC(=O)c3ccco3)cc2)cc1 | inconclusive: 7.31 µM [cytotoxic, partial curve] | – |
